{"source": "patent US20250195488A1", "about": "“MEDICINE CONTAINING VITAMIN D DERIVATIVE OR PHARMACEUTICALLY ACCEPTABLE SALT OR SOLVATE THEREOF, USED IN COMBINATION WITH IMMUNOMODULATORY SUBSTANCE” (TEEJIN PHARMA LIMITED, priority 2022, published 2025)", "system": "rat oligodendrocyte progenitor cells", "assay": "Promotive activity of rat oligodendrocyte progenitor cell differentiation-2 (immunostaining of MBP)", "assay_type": "cell-based", "conditions": "t-test vs DMSO group", "experimental": "The promotive activity of oligodendrocyte progenitor cell (OPC) differentiation of the vitamin D derivatives was evaluated by immunostaining of MBP.\nSubsequently, oligodendrocyte progenitor cell separation medium was added to the flask, and the mixture was similarly shaken for about 22 hours (37° C., 200 rpm), and the supernatant was collected to prepare oligodendrocyte progenitor cells.", "note": "The amount applied is not stated for every result.", "data": [{"compound": "C=C1[C@H](O)CC(=C/C=C2\\CCC[C@]3(C)[C@@H]([C@H](C)CN4CCCCC4(C)C)CC[C@@H]23)C[C@H]1O", "note": "[Compound H003, (1R,3R)-5-(2-((1R,3aS,7aR,E)-1-((S)-1-(2,2-dimethylpiperidin-1-yl)propan-2-yl)-7a-methyloctahydro-4H-inden-4-ylidene)ethylidene)-2-methylenecyclohexane-1,3-diol]", "values": [{"measurement": "Significant difference", "setting": "Test 9", "result": "*** (<0.001)"}]}, {"compound": "C=C1[C@H](O)CC(=C/C=C2\\CCC[C@]3(C)[C@@H]([C@H](C)CN4CCN(C)C[C@@H]4C)CC[C@@H]23)C[C@H]1O", "note": "[Compound H011, (1R,3R)-5-(2-((1R,3aS,7aR,E)-1-((S)-1-((S)-2,4-dimethylpiperazin-1-yl)propan-2-yl)-7a-methyloctahydro-4H-inden-4-ylidene)ethylidene)-2-methylenecyclohexane-1,3-diol]", "values": [{"measurement": "Significant difference", "setting": "Test 5", "result": "*** (<0.001)"}]}, {"compound": "C=C1[C@H](O)CC(=C/C=C2\\CCC[C@]3(C)[C@@H]([C@H](C)CN4CCN(C)C[C@H]4C)CC[C@@H]23)C[C@H]1O", "note": "[Compound H012, (1R,3R)-5-(2-((1R,3aS,7aR,E)-1-((S)-1-((R)-2,4-dimethylpiperazin-1-yl)propan-2-yl)-7a-methyloctahydro-4H-inden-4-ylidene)ethylidene)-2-methylenecyclohexane-1,3-diol]", "values": [{"measurement": "Significant difference", "setting": "Test 7", "result": "** (<0.01)"}]}, {"compound": "C=C1[C@H](O)CC(=C/C=C2\\CCC[C@]3(C)[C@@H]([C@H](C)CN4CCC[C@@H]4C(C)(C)O)CC[C@@H]23)C[C@H]1O", "note": "[Compound H013, (1R,3R)-5-(2-((1R,3aS,7aR,E)-1-((S)-1-((R)-2-(2-hydroxypropan-2-yl)pyrrolidin-1-yl)propan-2-yl)-7a-methyloctahydro-4H-inden-4-ylidene)ethylidene)-2-methylenecyclohexane-1,3-diol]", "values": [{"measurement": "Significant difference", "setting": "Test 8", "result": "**** (<0.0001)"}]}, {"compound": "C=C1[C@H](O)CC(=C/C=C2\\CCC[C@]3(C)[C@@H]([C@H](C)CN4CCC[C@H]4C(C)(C)O)CC[C@@H]23)C[C@H]1O", "note": "[Compound H014, (1R,3R)-5-(2-((1R,3aS,7aR,E)-1-((S)-1-((S)-2-(2-hydroxypropan-2-yl)pyrrolidin-1-yl)propan-2-yl)-7a-methyloctahydro-4H-inden-4-ylidene)ethylidene)-2-methylenecyclohexane-1,3-diol]", "values": [{"measurement": "Significant difference", "setting": "Test 8", "result": "**** (<0.0001)"}]}, {"compound": "C=C1[C@H](O)CC(=C/C=C2\\CCC[C@]3(C)[C@@H]([C@H](C)CN4CCC[C@@H]4C(C)(C)OC)CC[C@@H]23)C[C@H]1O", "note": "[Compound H015, (1R,3R)-5-(2-((1R,3aS,7aR,E)-1-((S)-1-((R)-2-(2-methoxypropan-2-yl)pyrrolidin-1-yl)propan-2-yl)-7a-methyloctahydro-4H-inden-4-ylidene)ethylidene)-2-methylenecyclohexane-1,3-diol]", "values": [{"measurement": "Significant difference", "setting": "Test 8", "result": "**** (<0.0001)"}]}, {"compound": "C=C1[C@H](O)CC(=C/C=C2\\CCC[C@]3(C)[C@@H]([C@H](C)CN4CCC[C@H]4C(C)(C)OC)CC[C@@H]23)C[C@H]1O", "note": "[Compound H016, (1R,3R)-5-(2-((1R,3aS,7aR,E)-1-((S)-1-((S)-2-(2-methoxypropan-2-yl)pyrrolidin-1-yl)propan-2-yl)-7a-methyloctahydro-4H-inden-4-ylidene)ethylidene)-2-methylenecyclohexane-1,3-diol]", "values": [{"measurement": "Significant difference", "setting": "Test 8", "result": "** (<0.01)"}]}, {"compound": "C=C1/C(=C\\C=C2/CCC[C@]3(C)[C@@H]([C@H](C)CN4CCCC[C@@H]4C)CC[C@@H]23)C[C@@H](O)C[C@H]1O", "note": "[Compound I001, (1R,3R,Z)-5-(2-((1R,3aS,7aR,E)-7a-methyl-1-((S)-1-((S)-2-methylpiperidin-1-yl)propan-2-yl)octahydro-4H-inden-4-ylidene)ethylidene)-4-methylenecyclohexane-1,3-diol]", "values": [{"measurement": "Significant difference", "setting": "Test 9", "result": "*** (<0.001)"}]}, {"compound": "C=C1/C(=C\\C=C2/CCC[C@]3(C)[C@@H]([C@H](C)CN4CCCC[C@H]4C)CC[C@@H]23)C[C@@H](O)C[C@H]1O", "note": "[Compound I002, (1R,3R,Z)-5-(2-((1R,3aS,7aR,E)-7a-methyl-1-((S)-1-((R)-2-methylpiperidin-1-yl)propan-2-yl)octahydro-4H-inden-4-ylidene)ethylidene)-4-methylenecyclohexane-1,3-diol]", "values": [{"measurement": "Significant difference", "setting": "Test 9", "result": "**** (<0.0001)"}]}, {"compound": "C=C1/C(=C\\C=C2/CCC[C@]3(C)[C@@H]([C@H](C)CN4CCCCC4(C)C)CC[C@@H]23)C[C@@H](O)C[C@H]1O", "note": "[Compound I003, (1R,3R,Z)-5-(2-((1R,3aS,7aR,E)-1-((S)-1-(2,2-dimethylpiperidin-1-yl)propan-2-yl)-7a-methyloctahydro-4H-inden-4-ylidene)ethylidene)-4-methylenecyclohexane-1,3-diol]", "values": [{"measurement": "Significant difference", "setting": "Test 9", "result": "**** (<0.0001)"}]}, {"compound": "C=C1/C(=C\\C=C2/CCC[C@]3(C)[C@@H]([C@H](C)CN4CCOC[C@@H]4C)CC[C@@H]23)C[C@@H](O)C[C@H]1O", "note": "[Compound I004, (1R,3R,Z)-5-(2-((1R,3aS,7aR,E)-7a-methyl-1-((S)-1-((S)-3-methylmorpholino)propan-2-yl)octahydro-4H-inden-4-ylidene)ethylidene)-4-methylenecyclohexane-1,3-diol]", "values": [{"measurement": "Significant difference", "setting": "Test 4", "result": "**** (<0.0001)"}]}, {"compound": "C=C1/C(=C\\C=C2/CCC[C@]3(C)[C@@H]([C@H](C)CN4CCOC[C@H]4C)CC[C@@H]23)C[C@@H](O)C[C@H]1O", "note": "[Compound I005, (1R,3R,Z)-5-(2-((1R,3aS,7aR,E)-7a-methyl-1-((S)-1-((R)-3-methylmorpholino)propan-2-yl)octahydro-4H-inden-4-ylidene)ethylidene)-4-methylenecyclohexane-1,3-diol]", "values": [{"measurement": "Significant difference", "setting": "Test 4", "result": "**** (<0.0001)"}]}, {"compound": "C=C1/C(=C\\C=C2/CCC[C@]3(C)[C@@H]([C@H](C)CN4CCOCC4(C)C)CC[C@@H]23)C[C@@H](O)C[C@H]1O", "note": "[Compound I006, (1R,3R,Z)-5-(2-((1R,3aS,7aR,E)-1-((S)-1-(3,3-dimethylmorpholino)propan-2-yl)-7a-methyloctahydro-4H-inden-4-ylidene)ethylidene)-4-methylenecyclohexane-1,3-diol]", "values": [{"measurement": "Significant difference", "setting": "Test 4", "result": "**** (<0.0001)"}]}]}
